Results published in PMC3393671.
Results are given in words; binding and its absence hold for the method and conditions named. Some binding calls cover weakened binding; strength is not graded here. Tags and fused reporters may be left off the sequences shown.

Molecular target: T1, Irga6 (GST tag cleaved off) (mouse) (UniProt Q9QZ85)
T1 sequence: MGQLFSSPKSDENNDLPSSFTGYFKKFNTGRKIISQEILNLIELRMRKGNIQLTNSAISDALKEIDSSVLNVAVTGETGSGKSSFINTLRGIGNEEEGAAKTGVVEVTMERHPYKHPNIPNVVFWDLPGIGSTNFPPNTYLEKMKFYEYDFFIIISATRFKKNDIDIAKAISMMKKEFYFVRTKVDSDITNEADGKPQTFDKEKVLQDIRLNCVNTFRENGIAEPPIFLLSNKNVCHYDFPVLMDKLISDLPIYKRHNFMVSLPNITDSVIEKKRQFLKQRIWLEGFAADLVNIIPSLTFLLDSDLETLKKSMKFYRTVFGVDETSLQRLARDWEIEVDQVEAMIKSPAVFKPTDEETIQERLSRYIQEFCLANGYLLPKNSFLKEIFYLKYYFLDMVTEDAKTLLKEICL
Assay: dynamic light scattering; GTP-dependent oligomerization of Irga6 with ROP5BIII; unpublished data

With ROP5BIII (from UniProt F2YGR7 25-549) the binding was “binds”.
